At least one structure is not confirmed: it was looked up by name or label, or the drawing left a doubt.
Test system: ephrin receptor A2 (Eph A2)
Assay: qRT-PCR mRNA level of EphA2 in C8161 cells
Type: cell-based, human
Settings: 10 nM

COc1ccc2[nH]c(-c3cccc(F)c3)cc(=O)c2c1OP(=O)(O)O [TRX-818, 2-(3-fluorophenyl)-6-methoxy-4-oxo-1,4-dihydroquinolin-5-yl phosphate]
inhibition of EphA2 mRNA expression: but not that of EphA2
